In publication PMC11473520:
These are yes or no findings as the source states them, for the method shown. In cells and extracts the contact can be indirect. Some binding calls cover weakened binding; strength is not graded here. For part of these data: Sequences can lack the tags named with a protein.

The chains behind the UniProt entries cited, without tags or fusion partners. Where a name states a change or a piece, a line headed by the entry shows the natural chain unless it says otherwise. A line that says so, or that is headed by a name, gives the form on record, which may keep a tag or linker.
UniProt Q15554: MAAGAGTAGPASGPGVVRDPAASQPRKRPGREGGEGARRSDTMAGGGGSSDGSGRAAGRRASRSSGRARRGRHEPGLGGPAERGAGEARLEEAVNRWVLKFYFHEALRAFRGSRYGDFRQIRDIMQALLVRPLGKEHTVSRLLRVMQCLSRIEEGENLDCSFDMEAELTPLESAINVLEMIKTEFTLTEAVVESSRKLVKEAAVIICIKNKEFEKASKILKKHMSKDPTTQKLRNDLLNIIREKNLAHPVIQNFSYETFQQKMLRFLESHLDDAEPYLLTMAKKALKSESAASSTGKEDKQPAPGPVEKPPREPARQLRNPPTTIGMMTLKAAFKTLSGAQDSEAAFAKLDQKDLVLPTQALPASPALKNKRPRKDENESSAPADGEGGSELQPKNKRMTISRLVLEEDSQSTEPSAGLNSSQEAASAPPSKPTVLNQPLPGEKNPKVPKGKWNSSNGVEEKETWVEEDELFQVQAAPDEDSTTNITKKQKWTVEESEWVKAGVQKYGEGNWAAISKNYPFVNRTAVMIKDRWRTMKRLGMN
UniProt P09884: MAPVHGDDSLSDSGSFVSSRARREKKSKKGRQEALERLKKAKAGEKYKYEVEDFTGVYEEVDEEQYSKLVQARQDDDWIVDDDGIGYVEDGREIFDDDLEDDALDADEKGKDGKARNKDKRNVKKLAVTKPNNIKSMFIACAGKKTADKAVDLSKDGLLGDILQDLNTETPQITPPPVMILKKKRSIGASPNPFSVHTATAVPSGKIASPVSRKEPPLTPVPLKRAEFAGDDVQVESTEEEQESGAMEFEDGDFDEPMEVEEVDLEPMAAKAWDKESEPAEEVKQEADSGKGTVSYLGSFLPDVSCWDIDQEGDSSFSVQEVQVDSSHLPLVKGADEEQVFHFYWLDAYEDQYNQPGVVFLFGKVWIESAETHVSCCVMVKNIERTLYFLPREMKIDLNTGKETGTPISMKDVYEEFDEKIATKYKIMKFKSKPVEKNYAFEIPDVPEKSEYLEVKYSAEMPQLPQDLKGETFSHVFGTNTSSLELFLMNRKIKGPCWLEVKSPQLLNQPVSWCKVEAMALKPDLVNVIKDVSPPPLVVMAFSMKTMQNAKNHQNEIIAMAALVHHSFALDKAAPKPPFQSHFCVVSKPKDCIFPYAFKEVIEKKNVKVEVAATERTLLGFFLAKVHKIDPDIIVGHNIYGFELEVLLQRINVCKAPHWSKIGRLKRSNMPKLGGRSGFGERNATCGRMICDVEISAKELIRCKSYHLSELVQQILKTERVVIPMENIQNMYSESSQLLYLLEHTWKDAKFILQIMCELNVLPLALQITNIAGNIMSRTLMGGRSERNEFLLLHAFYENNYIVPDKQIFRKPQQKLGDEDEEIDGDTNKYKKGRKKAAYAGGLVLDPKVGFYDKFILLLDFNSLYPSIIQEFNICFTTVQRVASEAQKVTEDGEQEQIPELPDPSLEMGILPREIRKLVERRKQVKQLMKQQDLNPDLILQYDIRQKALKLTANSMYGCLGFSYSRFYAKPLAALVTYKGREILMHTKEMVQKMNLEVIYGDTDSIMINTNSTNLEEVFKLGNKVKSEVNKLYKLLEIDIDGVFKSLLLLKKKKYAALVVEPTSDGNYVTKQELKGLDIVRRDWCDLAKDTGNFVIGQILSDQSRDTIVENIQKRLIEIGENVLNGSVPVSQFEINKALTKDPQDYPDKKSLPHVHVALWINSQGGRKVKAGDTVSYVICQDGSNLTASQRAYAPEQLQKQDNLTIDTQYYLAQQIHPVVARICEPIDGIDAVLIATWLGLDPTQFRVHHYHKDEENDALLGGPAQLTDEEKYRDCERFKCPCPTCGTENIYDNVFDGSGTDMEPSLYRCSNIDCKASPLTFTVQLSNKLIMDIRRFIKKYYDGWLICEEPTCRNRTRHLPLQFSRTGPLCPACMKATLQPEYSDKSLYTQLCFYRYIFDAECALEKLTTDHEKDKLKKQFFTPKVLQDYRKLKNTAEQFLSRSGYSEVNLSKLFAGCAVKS
GFP-tagged POLA1 p.Arg616Gly (P09884, form named): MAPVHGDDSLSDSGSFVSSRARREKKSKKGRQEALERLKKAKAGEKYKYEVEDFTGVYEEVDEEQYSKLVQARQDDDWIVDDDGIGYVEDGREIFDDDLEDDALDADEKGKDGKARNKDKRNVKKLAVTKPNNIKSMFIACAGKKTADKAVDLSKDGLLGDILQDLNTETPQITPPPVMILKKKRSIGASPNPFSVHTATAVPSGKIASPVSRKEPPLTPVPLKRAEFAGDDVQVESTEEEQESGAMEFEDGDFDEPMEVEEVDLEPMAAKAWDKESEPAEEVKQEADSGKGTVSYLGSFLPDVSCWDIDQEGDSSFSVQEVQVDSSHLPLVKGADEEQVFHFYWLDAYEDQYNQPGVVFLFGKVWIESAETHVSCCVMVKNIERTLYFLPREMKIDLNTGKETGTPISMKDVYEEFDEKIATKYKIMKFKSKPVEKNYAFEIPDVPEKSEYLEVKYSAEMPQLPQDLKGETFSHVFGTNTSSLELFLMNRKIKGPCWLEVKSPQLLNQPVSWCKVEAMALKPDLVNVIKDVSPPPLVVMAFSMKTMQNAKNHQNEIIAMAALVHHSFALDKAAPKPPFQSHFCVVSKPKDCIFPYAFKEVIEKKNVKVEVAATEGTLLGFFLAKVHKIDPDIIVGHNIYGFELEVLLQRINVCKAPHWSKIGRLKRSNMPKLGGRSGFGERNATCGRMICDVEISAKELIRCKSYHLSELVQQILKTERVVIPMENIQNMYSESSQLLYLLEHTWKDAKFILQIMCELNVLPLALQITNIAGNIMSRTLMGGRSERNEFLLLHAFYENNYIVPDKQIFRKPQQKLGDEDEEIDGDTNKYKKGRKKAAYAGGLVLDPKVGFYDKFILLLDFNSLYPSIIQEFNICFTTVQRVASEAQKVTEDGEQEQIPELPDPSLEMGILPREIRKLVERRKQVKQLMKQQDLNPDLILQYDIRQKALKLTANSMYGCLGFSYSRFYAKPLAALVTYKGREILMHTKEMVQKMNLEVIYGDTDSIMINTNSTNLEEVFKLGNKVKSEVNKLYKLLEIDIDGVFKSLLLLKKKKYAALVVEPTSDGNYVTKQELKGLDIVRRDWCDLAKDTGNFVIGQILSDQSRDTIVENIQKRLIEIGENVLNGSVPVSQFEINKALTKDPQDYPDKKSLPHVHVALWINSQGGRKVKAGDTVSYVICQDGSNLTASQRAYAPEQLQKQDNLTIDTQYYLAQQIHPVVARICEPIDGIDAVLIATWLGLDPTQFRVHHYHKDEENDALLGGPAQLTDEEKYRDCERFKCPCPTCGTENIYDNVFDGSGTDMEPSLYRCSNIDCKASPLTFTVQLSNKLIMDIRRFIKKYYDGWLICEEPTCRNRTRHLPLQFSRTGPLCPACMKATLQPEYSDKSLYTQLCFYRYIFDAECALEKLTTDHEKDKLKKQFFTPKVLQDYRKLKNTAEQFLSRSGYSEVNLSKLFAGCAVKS
GFP-tagged POLA1 p.Leu537Ile (P09884, form named): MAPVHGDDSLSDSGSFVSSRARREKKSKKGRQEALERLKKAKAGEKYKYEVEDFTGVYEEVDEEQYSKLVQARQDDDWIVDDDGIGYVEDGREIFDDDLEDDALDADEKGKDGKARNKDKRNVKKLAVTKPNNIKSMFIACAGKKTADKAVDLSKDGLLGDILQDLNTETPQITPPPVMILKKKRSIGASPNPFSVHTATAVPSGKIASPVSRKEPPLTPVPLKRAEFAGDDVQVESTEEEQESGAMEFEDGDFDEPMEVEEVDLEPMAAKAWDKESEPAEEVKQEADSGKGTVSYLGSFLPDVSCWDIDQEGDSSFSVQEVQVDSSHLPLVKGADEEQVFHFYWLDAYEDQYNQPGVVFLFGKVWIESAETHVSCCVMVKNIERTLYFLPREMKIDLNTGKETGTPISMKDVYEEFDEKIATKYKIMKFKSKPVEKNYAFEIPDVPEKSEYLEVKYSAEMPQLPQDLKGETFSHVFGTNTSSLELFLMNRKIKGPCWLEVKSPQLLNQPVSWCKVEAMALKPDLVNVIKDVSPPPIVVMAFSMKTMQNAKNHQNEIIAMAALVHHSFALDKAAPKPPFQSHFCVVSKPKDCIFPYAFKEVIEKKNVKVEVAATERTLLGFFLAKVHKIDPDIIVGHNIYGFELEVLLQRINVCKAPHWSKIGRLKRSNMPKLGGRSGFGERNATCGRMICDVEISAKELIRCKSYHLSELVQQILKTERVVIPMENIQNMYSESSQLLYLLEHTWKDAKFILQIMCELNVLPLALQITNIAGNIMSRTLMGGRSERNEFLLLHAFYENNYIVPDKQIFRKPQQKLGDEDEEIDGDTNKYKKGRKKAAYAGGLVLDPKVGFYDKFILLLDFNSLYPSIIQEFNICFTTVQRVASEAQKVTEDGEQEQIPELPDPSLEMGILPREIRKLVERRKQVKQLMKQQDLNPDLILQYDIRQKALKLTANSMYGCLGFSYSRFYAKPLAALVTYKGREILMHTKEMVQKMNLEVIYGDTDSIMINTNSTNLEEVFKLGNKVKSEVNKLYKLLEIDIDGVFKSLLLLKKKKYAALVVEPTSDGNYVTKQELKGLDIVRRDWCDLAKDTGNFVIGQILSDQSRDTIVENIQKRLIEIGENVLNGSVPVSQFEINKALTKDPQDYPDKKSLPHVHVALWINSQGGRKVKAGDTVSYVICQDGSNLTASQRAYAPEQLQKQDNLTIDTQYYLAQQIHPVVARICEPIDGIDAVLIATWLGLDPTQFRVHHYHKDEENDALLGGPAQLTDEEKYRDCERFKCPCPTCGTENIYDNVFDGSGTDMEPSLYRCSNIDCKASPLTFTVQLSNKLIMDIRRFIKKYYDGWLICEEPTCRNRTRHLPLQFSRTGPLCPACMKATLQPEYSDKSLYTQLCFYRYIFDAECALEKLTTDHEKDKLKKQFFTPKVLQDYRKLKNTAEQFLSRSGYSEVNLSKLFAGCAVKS
GFP-tagged POLA1 p.Tyr1146Cys (P09884, form named): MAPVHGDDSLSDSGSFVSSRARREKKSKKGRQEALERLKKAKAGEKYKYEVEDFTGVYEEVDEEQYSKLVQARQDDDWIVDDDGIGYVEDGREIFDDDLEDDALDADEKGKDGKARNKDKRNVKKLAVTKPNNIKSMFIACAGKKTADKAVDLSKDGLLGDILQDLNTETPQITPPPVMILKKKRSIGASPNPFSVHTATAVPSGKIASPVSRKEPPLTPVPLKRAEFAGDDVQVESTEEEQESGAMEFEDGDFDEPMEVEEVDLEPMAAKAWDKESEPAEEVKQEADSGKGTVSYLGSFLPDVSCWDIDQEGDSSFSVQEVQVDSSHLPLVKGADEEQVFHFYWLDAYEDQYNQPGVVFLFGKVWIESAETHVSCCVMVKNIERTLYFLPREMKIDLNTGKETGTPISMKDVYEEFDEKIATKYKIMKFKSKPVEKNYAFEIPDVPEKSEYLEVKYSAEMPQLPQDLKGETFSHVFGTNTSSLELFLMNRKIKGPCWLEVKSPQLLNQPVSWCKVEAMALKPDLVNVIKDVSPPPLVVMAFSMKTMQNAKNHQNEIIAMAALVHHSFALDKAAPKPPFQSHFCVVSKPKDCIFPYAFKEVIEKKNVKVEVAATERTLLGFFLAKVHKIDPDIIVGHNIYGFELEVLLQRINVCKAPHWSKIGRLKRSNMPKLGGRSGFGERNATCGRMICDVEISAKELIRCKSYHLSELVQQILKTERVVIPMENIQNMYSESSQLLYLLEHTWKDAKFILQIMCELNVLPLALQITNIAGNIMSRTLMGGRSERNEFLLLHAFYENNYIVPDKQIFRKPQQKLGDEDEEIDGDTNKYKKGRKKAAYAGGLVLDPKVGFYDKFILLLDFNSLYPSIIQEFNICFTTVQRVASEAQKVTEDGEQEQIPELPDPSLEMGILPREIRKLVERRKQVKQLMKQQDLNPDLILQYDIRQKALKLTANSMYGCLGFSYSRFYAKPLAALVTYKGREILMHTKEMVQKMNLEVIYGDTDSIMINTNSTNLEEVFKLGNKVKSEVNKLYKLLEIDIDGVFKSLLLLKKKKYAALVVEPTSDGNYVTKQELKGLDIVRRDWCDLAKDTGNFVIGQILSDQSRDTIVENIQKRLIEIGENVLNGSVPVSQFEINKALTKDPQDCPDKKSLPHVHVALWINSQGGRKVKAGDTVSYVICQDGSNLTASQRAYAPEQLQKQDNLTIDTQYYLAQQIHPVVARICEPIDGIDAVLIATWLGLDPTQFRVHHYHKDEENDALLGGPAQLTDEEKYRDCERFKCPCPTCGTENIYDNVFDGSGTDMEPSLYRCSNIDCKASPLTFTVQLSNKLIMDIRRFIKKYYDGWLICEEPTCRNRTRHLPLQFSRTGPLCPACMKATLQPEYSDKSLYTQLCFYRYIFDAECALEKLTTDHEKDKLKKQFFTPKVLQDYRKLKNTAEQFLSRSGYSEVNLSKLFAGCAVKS

B1: PRIM1 (protein, UniProt P49642 1-420)
chain: METFDPTELPELLKLYYRRLFPYSQYYRWLNYGGVIKNYFQHREFSFTLKDDIYIRYQSFNNQSDLEKEMQKMNPYKIDIGAVYSHRPNQHNTVKLGAFQAQEKELVFDIDMTDYDDVRRCCSSADICPKCWTLMTMAIRIIDRALKEDFGFKHRLWVYSGRRGVHCWVCDESVRKLSSAVRSGIVEYLSLVKGGQDVKKKVHLSEKIHPFIRKSINIIKKYFEEYALVNQDILENKESWDKILALVPETIHDELQQSFQKSHNSLQRWEHLKKVASRYQNNIKNDKYGPWLEWEIMLQYCFPRLDINVSKGINHLLKSPFSVHPKTGRISVPIDLQKVDQFDPFTVPTISFICRELDAISTNEEEKEENEAESDVKHRTRDYKKTSLAPYVKVFEHFLENLDKSRKGELLKKSDLQKDF
B2: TEN1-HA (protein, UniProt Q86WV5 1-123)
chain: MMLPKPGTYYLPWEVSAGQVPDGSTLRTFGRLCLYDMIQSRVTLMAQHGSDQHQVLVCTKLVEPFHAQVGSLYIVLGELQHQQDRGSVVKARVLTCVEGMNLPLLEQAIREQRLYKQERGGSQ
B3: PRIM2A (protein, UniProt P49643 1-509)
chain: MEFSGRKWRKLRLAGDQRNASYPHCLQFYLQPPSENISLIEFENLAIDRVKLLKSVENLGVSYVKGTEQYQSKLESELRKLKFSYRENLEDEYEPRRRDHISHFILRLAYCQSEELRRWFIQQEMDLLRFRFSILPKDKIQDFLKDSQLQFEAISDEEKTLREQEIVASSPSLSGLKLGFESIYKIPFADALDLFRGRKVYLEDGFAYVPLKDIVAIILNEFRAKLSKALALTARSLPAVQSDERLQPLLNHLSHSYTGQDYSTQGNVGKISLDQIDLLSTKSFPPCMRQLHKALRENHHLRHGGRMQYGLFLKGIGLTLEQALQFWKQEFIKGKMDPDKFDKGYSYNIRHSFGKEGKRTDYTPFSCLKIILSNPPSQGDYHGCPFRHSDPELLKQKLQSYKISPGGISQILDLVKGTHYQVACQKYFEMIHNVDDCGFSLNHPNQFFCESQRILNGGKDIKKEPIQPETPQPKPSVQKTKDASSALASLNSSLEMDMEGLEDYFSEDS
B4: MYC-CTC1 (protein, UniProt Q2NKJ3 1-1217)
chain: MAAGRAQVPSSEQAWLEDAQVFIQKTLCPAVKEPNVQLTPLVIDCVKTVWLSQGRNQGSTLPLSYSFVSVQDLKTHQRLPCCSHLSWSSSAYQAWAQEAGPNGNPLPREQLLLLGTLTDLSADLEQECRNGSLYVRDNTGVLSCELIDLDLSWLGHLFLFPRWSYLPPARWNSSGEGHLELWDAPVPVFPLTISPGPVTPIPVLYPESASCLLRLRNKLRGVQRNLAGSLVRLSALVKSKQKAYFILSLGRSHPAVTHVSIIVQVPAQLVWHRALRPGTAYVLTELRVSKIRGQRQHVWMTSQSSRLLLLKPECVQELELELEGPLLEADPKPLPMPSNSEDKKDPESLVRYSRLLSYSGAVTGVLNEPAGLYELDGQLGLCLAYQQFRGLRRVMRPGVCLQLQDVHLLQSVGGGTRRPVLAPCLRGAVLLQSFSRQKPGAHSSRQAYGASLYEQLVWERQLGLPLYLWATKALEELACKLCPHVLRHHQFLQHSSPGSPSLGLQLLAPTLDLLAPPGSPVRNAHNEILEEPHHCPLQKYTRLQTPSSFPTLATLKEEGQRKAWASFDPKALLPLPEASYLPSCQLNRRLAWSWLCLLPSAFCPAQVLLGVLVASSHKGCLQLRDQSGSLPCLLLAKHSQPLSDPRLIGCLVRAERFQLIVERDVRSSFPSWKELSMPGFIQKQQARVYVQFFLADALILPVPRPCLHSATPSTPQTDPTGPEGPHLGQSRLFLLCHKEALMKRNFCVPPGASPEVPKPALSFYVLGSWLGGTQRKEGTGWGLPEPQGNDDNDQKVHLIFFGSSVRWFEFLHPGQVYRLIAPGPATPMLFEKDGSSCISRRPLELAGCASCLTVQDNWTLELESSQDIQDVLDANKSLPESSLTDLLSDNFTDSLVSFSAEILSRTLCEPLVASLWMKLGNTGAMRRCVKLTVALETAECEFPPHLDVYIEDPHLPPSLGLLPGARVHFSQLEKRVSRSHNVYCCFRSSTYVQVLSFPPETTISIPLPHIYLAELLQGGQSPFQATASCHIVSVFSLQLFWVCAYCTSICRQGKCTRLGSTCPTQTAISQAIIRLLVEDGTAEAVVTCRNHHVAAALGLCPREWASLLDFVQVPGRVVLQFAGPGAQLESSARVDEPMTMFLWTLCTSPSVLRPIVLSFELERKPSKIVPLEPPRLQRFQCGELPFLTHVNPRLRLSCLSIRESEYSSSLGILASSC
B5: FLAG-STN1 (protein, UniProt Q9H668 1-368)
chain: MQPGSSRCEEETPSLLWGLDPVFLAFAKLYIRDILDMKESRQVPGVFLYNGHPIKQVDVLGTVIGVRERDAFYSYGVDDSTGVINCICWKKLNTESVSAAPSAARELSLTSQLKKLQETIEQKTKIEIGDTIRVRGSIRTYREEREIHATTYYKVDDPVWNIQIARMLELPTIYRKVYDQPFHSSALEKEEALSNPGALDLPSLTSLLSEKAKEFLMENRVQSFYQQELEMVESLLSLANQPVIHSASSDQVNFKKDTTSKAIHSIFKNAIQLLQEKGLVFQKDDGFDNLYYVTREDKDLHRKIHRIIQQDCQKPNHMEKGCHFLHILACARLSIRPGLSEAVLQQVLELLEDQSDIVSTMEHYYTAF

Key:
[1] = target: TRF2 (human (endogenous in patient and control cells)) (UniProt Q15554); assay: proximity ligation; Duolink in situ kit on fixed control and POT1 patient cells; PLA dots counted by confocal imaging in the DAPI-stained region
[2] = target: GFP-tagged POLA1 p.Arg616Gly (human) (UniProt P09884); assay: co-IP; GFP-TRAP agarose beads on lysates of 293T cells expressing GFP-tagged POLA1 (wild type or variant) together with MYC-CTC1, FLAG-STN1 and TEN1-HA; western blot of input and pull-down
[3] = target: GFP-tagged POLA1 p.P496S (common variant) (human) (UniProt P09884); assay: as above
[4] = target: GFP-tagged POLA1 p.Leu537Ile (human) (UniProt P09884); assay: as above
[5] = target: GFP-tagged POLA1 p.Tyr1146Cys (human) (UniProt P09884); assay: as above
[6] = target: GFP-tagged wild-type POLA1 (human) (UniProt P09884); assay: as above

Molecule	binding [1]	binding [2]	binding [3]	binding [4]	binding [5]	binding [6]
RPA70 (from UniProt P27694 1-616)	binds	–	–	–	–	–
53BP1 (from UniProt Q12888 1-1972)	binds	–	–	–	–	–
B1	–	binds weakly	binds	binds weakly	binds weakly	binds
B2	–	binds weakly	binds	binds weakly	binds weakly	binds
B3	–	binds weakly	binds	binds weakly	binds weakly	binds
B4	–	binds weakly	binds	binds weakly	binds weakly	binds
B5	–	binds weakly	binds	binds weakly	binds weakly	binds
